Earlier results on one compound are cited in patent publication US20100272800A1 (SANOVEL ILAC SANAYI VE TICARET ANONIM SIRKETI, priority 2009, published 2010).

One data set deals with serotonin 5HT3. As to conditions: read-out: Ki serotonin 5HT3.
Data set [1] deals with adrenergic (alpha)1 receptors. As to conditions: read-out: Ki adrenergic (alpha)1 receptors.

Regarding `Cc1cc2c(s1)Nc1ccccc1N=C2N1CCN(C)CC1` [Olanzapine, 2-methyl-4-(4-methyl-1-piperazinyl)-10H-thieno[2,3-b][1,5] benzodiazepine], the Ki – broadly, a dissociation constant, usually derived from enzyme kinetics or from competition with a known ligand – at serotonin 5HT3 was 57 nM; in data set [1], 19 nM.
